Results reported in article PMC11601938.
These are yes or no findings as the source states them, for the method shown. Binding seen in cells or lysates may run through a third protein. Some entries that bind do so weakly or less than the wild type. Sequences can lack the tags named with a protein.

The chains behind the UniProt entries cited, without tags or fusion partners.
UniProt Q92963: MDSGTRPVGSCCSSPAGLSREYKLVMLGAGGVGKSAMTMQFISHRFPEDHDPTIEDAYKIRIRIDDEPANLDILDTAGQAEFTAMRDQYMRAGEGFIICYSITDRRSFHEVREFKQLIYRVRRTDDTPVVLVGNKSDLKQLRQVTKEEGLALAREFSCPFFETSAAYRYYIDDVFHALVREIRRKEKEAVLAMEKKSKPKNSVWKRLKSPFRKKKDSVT

B1: LZTR1 WT (leucine-zipper-like posttranslational regulator 1), in vitro translated, FLAG-tagged, Q8N653 1-840 (protein)
chain: MAGPGSTGGQIGAAALAGGARSKVAPSVDFDHSCSDSVEYLTLNFGPFETVHRWRRLPPCDEFVGARRSKHTVVAYKDAIYVFGGDNGKTMLNDLLRFDVKDCSWCRAFTTGTPPAPRYHHSAVVYGSSMFVFGGYTGDIYSNSNLKNKNDLFEYKFATGQWTEWKIEGRLPVARSAHGATVYSDKLWIFAGYDGNARLNDMWTIGLQDRELTCWEEVAQSGEIPPSCCNFPVAVCRDKMFVFSGQSGAKITNNLFQFEFKDKTWTRIPTEHLLRGSPPPPQRRYGHTMVAFDRHLYVFGGAADNTLPNELHCYDVDFQTWEVVQPSSDSEVGGAEVPERACASEEVPTLTYEERVGFKKSRDVFGLDFGTTSAKQPTQPASELPSGRLFHAAAVISDAMYIFGGTVDNNIRSGEMYRFQFSCYPKCTLHEDYGRLWESRQFCDVEFVLGEKEECVQGHVAIVTARSRWLRRKITQARERLAQKLEQEAAPVPREAPGVAAGGARPPLLHVAIREAEARPFEVLMQFLYTDKIKYPRKGHVEDVLLIMDVYKLALSFQLCRLEQLCRQYIEASVDLQNVLVVCESAARLQLSQLKEHCLNFVVKESHFNQVIMMKEFERLSSPLIVEIVRRKQQPPPRTPLDQPVDIGTSLIQDMKAYLEGAGAEFCDITLLLDGHPRPAHKAILAARSSYFEAMFRSFMPEDGQVNISIGEMVPSRQAFESMLRYIYYGEVNMPPEDSLYLFAAPYYYGFYNNRLQAYCKQNLEMNVTVQNVLQILEAADKTQALDMKRHCLHIIVHQFTKVSKLPTLRSLSQQLLLDIIDSLASHISDKQCAELGADI

What was measured:
[1] = target: T1, FLAG-LZTR1 p.G248R, in vitro translated (human) (UniProt Q8N653); assay: co-IP; in vitro translated FLAG-LZTR1 WT or mutants incubated with HEK293-KO (LZTR1-KO) whole-cell lysate and FLAG-M2 magnetic beads for 12 hours; immunoblot for endogenous RAS subfamily proteins
T1 sequence: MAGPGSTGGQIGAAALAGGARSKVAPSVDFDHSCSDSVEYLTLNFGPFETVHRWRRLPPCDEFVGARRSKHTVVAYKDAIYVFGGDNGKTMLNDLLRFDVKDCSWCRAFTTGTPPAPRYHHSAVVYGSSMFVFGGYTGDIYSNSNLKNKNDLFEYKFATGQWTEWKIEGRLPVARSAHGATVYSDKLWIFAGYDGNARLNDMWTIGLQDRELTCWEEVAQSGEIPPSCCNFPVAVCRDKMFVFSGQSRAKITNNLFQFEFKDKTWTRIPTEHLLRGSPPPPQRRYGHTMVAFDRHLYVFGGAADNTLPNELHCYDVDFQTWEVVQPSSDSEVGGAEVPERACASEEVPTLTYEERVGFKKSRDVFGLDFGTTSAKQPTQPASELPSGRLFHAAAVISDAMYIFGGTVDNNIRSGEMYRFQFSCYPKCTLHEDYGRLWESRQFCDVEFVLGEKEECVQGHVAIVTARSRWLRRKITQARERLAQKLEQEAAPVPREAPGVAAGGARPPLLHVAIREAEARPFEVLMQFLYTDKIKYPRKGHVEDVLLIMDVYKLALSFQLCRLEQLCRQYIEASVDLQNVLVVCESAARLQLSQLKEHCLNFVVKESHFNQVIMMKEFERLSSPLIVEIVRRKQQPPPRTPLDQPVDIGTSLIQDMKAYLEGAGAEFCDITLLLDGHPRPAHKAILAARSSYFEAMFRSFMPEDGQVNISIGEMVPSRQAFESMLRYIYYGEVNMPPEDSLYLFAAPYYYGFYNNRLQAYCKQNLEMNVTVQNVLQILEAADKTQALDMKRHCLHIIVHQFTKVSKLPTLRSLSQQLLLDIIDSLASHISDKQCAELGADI

[2] = target: T2, LZTR1 WT (leucine-zipper-like posttranslational regulator 1), in vitro translated, FLAG-tagged (human) (UniProt Q8N653); assay: as above
T2 sequence: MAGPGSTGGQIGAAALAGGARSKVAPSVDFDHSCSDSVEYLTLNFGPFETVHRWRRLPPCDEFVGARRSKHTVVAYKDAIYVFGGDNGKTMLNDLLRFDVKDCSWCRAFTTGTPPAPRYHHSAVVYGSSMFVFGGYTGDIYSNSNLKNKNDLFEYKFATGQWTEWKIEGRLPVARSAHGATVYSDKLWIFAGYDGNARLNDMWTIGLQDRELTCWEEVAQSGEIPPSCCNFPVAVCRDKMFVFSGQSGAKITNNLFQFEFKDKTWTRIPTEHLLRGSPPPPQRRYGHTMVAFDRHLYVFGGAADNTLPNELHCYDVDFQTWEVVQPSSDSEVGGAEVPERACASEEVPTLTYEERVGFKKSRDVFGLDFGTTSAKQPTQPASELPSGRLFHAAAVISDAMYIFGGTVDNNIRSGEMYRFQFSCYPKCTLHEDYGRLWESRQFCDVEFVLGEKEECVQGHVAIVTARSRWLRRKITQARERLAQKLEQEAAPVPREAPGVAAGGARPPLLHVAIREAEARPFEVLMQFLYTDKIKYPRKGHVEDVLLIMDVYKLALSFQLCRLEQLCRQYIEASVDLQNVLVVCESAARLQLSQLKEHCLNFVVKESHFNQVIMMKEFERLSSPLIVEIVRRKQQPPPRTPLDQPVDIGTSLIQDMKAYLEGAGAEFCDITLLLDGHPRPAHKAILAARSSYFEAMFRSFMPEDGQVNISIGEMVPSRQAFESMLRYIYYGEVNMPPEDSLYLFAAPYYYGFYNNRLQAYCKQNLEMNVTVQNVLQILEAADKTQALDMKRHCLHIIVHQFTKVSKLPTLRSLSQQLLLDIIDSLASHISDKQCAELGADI

[3] = target: T3, LZTR1 WT (leucine-zipper-like posttranslational regulator 1), in vitro translated, FLAG-tagged (human), Q8N653; assay: co-IP; in vitro translated FLAG-, MYC- and HA-tagged LZTR1 proteins mixed at the indicated protein ratios and incubated with FLAG-M2 magnetic beads for 6 hours; immunoblot; details: remark: other sources report otherwise
T3 chain: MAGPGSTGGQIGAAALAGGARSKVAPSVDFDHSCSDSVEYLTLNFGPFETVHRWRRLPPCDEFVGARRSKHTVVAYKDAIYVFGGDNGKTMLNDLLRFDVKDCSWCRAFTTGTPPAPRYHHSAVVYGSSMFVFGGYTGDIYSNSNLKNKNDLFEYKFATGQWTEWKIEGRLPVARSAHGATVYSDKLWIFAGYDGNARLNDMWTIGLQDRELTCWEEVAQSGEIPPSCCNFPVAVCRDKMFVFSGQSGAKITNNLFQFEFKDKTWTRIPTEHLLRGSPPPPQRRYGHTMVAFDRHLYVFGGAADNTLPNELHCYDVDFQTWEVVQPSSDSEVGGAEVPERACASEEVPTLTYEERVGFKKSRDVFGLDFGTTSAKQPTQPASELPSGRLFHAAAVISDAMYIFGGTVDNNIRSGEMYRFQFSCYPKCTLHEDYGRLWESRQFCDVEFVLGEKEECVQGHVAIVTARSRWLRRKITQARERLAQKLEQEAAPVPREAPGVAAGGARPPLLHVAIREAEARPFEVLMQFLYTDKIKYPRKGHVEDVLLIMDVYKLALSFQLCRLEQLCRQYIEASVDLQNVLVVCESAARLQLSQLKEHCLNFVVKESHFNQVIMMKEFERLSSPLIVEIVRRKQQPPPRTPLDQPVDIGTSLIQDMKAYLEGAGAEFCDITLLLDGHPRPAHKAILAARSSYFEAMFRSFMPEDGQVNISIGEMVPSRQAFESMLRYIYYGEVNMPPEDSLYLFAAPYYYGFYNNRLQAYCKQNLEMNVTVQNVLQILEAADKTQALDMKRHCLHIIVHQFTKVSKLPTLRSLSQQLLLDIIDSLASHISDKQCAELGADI

Molecule	binding [1]	binding [2]	binding [3]
RIT1 (Ras-like without CAAX 1), endogenous (from UniProt Q92963 1-219)	no binding	binds	
B1			binds
